Data source: PubChem BioAssay AID686943 (Drosophila RNAi Screening Center, 2013)

Test: 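Fly genes whose loss alters ERK activation after insulin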 (primary screen)
Cell system: Drosophila S2R+ haemocyte-like cells expressing YFP-tagged ERK (Rolled)
Knock-down reagent: long dsRNA against Drosophila genes
Challenge: insulin stimulation versus unstimulated cells; dose and duration not given
Measured: 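Per-plate z-scores of phospho-ERK immunostaining normalised to YFP-tagged ERK, measured with and without insulin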
Direction: replicate 1, z-score of dpERK with insulin: higher = more active ERK per ERK-YFP after insulin
The deposit covers about 23,000 reagents; shown is an unselected part of those that have a named target and a result. 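Extra replicates exist only for a retested subset of genes; insulin dose and duration not given; both raised and lowered dpERK matter.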 Further read-outs or replicates are left out here. Not given: the amount of reagent, the time to read-out.

| Target gene | dsRNA | replicate 1, z-score of dpERK with insulin |
| --- | --- | --- |
| Gr10b | DRSC19477 | -0.75 |
| Eglp2 | DRSC04294 | 0.56 |
| CG42458 | DRSC08881 | 0.6 |
| CG42458 | DRSC10335 | -4.92 |
| Ntmt | DRSC06624 | 0.67 |
| CG32202 | DRSC09989 | -0.84 |
| Mat89Ba | DRSC14540 | -0.15 |
| VhaM9.7-b | DRSC11841 | -0.22 |
| CG4681 | DRSC04481 | -0.18 |
| scro | DRSC17099 | 0.53 |
| scro | DRSC17102 | -0.29 |
| osi | DRSC02931 | 0.3 |
| Atg18a | DRSC10943 | -0.6 |
| ksh | DRSC19554 | 1.6 |
| Fip1 | DRSC12147 | 0.84 |
| CG7653 | DRSC01886 | -0.07 |
| CG14569 | DRSC11730 | 0.02 |
| lncRNA:CR31386 | DRSC22769 | -1.11 |
| CG13058 | DRSC09941 | 0.39 |
| CG13606 | DRSC14609 | 1.69 |
| CG31698 | DRSC22226 | -0.47 |
| ORMDL | DRSC11737 | 0.31 |
| Rchy1 | DRSC02542 | -0.25 |
| Vajk2 | DRSC02540 | 0.22 |
| JYalpha | DRSC17224 | 0.57 |

Next part (5 carried over from the part before).
| Target gene | dsRNA | replicate 1, z-score of dpERK with insulin |
| --- | --- | --- |
| CG31698 | DRSC22226 | -0.47 |
| ORMDL | DRSC11737 | 0.31 |
| Rchy1 | DRSC02542 | -0.25 |
| Vajk2 | DRSC02540 | 0.22 |
| JYalpha | DRSC17224 | 0.57 |
| CG8149 | DRSC16391 | 0.37 |
| sad | DRSC16630 | -0.12 |
| CG34263 | DRSC07866 | 0.75 |
| CG42521 | DRSC10154 | 0.12 |
| CG5909 | DRSC15914 | 0.45 |
| pbl | DRSC11381 | -0.94 |
| CG42758 | DRSC10021 | -0.68 |
| Nup153 | DRSC19904 | -1.74 |
| CG34038 | DRSC04039 | -0.49 |
| CG5386 | DRSC15788 | -0.54 |
| dsh | DRSC19803 | 0.99 |
| Dip-B | DRSC16466 | -0.54 |
| Capa | DRSC15058 | 0.63 |
| Nep1 | DRSC18388 | -0.62 |
| Nep1 | DRSC18389 | -1.83 |
| CG3165 | DRSC00573 | 0.92 |
| CG44251 | DRSC06856 | 0.73 |
| CG3626 | DRSC18318 | 0.45 |
| CG7394 | DRSC10835 | -0.97 |
| Fic | DRSC03247 | 0 |
| Osi24 | DRSC12275 | 0.41 |
| Col4a1 | DRSC03291 | 0.3 |
| lncRNA:CR30121 | DRSC21481 | 0.37 |
| red | DRSC14477 | -1.96 |
| CG30283 | DRSC04071 | 0.35 |
| CG32264 | DRSC08061 | 0.47 |
| CG32264 | DRSC08167 | 0.27 |
| CG32264 | DRSC08169 | 0.05 |
| CG32264 | DRSC08285 | 1.08 |
| CG32264 | DRSC08437 | -1.94 |
| bwa | DRSC01749 | -1.04 |
| bwa | DRSC02310 | 0.5 |
